# Results reported in patent publication US11104648B2, “Pyrazole derivative” (Zhejiang Research Institute of Chemical Industry Co., Ltd., priority 2018, dated 2021).
# Some results were stated once for a whole list of compounds, not compound by compound. At least one compound was matched to its structure with a doubt left.
# What was measured:
# Assay type in all cases: in vivo
# [1] = tested on: Tetranychus cinnabarinus Nymphs; test: Activity assay of Tetranychus cinnabarinus nymphs (spray on broad bean leaves); conditions: 48 h
# Experimental: According to the solubility of the test compound, the crude drug was dissolved in N, N-dimethylformamide, and then prepared into a test solution of the desired concentration with 1‰ Tween 80 aqueous solution. The content of N,N-dimethylformamide in the solution should not exceed 10%.
# The broad bean leaves with petioles were cut and inserted into a small bottle with water. A certain number of brightly colored, active female adult mites were placed, 24h later, adult mites were removed, and leaves with insufficient eggs were removed. When eggs were hatched and grew into nymphs, spray treatment was performed. The experiment was repeated three times, and a blank control was set, and placed to an observation room (26±2° C., humidity 70%˜80%, 16h light per day) for culture. 48 h later, the results were investigated. The nymphs were gently touched during investigation, and if no response, they were regarded as deaths.
# [2] = tested on: adult Tetranychus cinnabarinus; test: Activity assay of adult Tetranychus cinnabarinus (whole-plant spray on bean seedlings); conditions: 48 h
# Experimental: According to the solubility of the test compound, the crude drug was dissolved in N, N-dimethlfornamide, and then prepared into a test solution of the desired concentration with 1‰ Tween 80 aqueous solution. The content of N,N-dimethylformamide in the solution should not exceed 10%.
# Two euphylla bean seedlings were taken, after inoculated with adult Tetranychus cinnabarinus and the base number was investigated, whole plants were sprayed with a hand-held sprayer. The experiment was repeated three times for each treatment, after treatment, placed in a standard observation room after treatment, to investigate the survival number of mites in 48 hand calculate the death rate.
# [3] = tested on: Eggs of Tetranychus Cinnabarinus; test: Activity assay of eggs of Tetranychus cinnabarinus (spray method, ovicidal)
# Experimental: According to the solubility of the test compound, the crude drug was dissolved in N N-dimethylformamide, and then prepared into a test solution of the desired concentration with 1‰ Tween 80 aqueous solution. The content of N. N-dimethylformamide in the solution should not exceed 10%.
# Spray method. The broad bean leaves with petioles were cut and inserted into a bottle with water. A certain number of female mites were placed, 24h later, adult mites were removed, and spray treatment was performed in 24 h. The experiment was repeated three times, and a blank control was set, and placed to an observation room (26±2° C., humidity 70%˜80%, 16h light per day) for culture. When the blank control group was incubated, the results were investigated. The non-incubated ones were used as death for investigation.
# [4] = concentration 5 mg/L, non-incubated eggs counted as dead
Compound,nymph-killing activity ([1]; concentration 2.5 mg/L) [%],adult mite-killing activity ([2]; concentration 2.5 mg/L) [%],"ovicidal activity [3, 4] [%]",nymph-killing activity ([1]; concentration 2 mg/L) [%],adult mite-killing activity ([2]; concentration 1.25 mg/L) [%],ovicidal activity ([3]; concentration 2 mg/L) [%]
CCOC(=O)COC(=O)OCO/C(=C(/C#N)c1ccc(C(C)(C)C)cc1)c1c(C)c(C)nn1C [Compound 862],≥ 95,≥ 90,≥ 90,,,
CSCCOC(=O)OCO/C(=C(/C#N)c1ccc(C(C)(C)C)cc1)c1c(Cl)c(C)nn1C [Compound 663],≥ 95,≥ 90,≥ 90,,,
C#CCOC(=O)OCO/C(=C(/C#N)c1ccc(C(C)(C)C)cc1)c1c(C)c(C)nn1C [Compound 860],≥ 95,≥ 90,≥ 90,,,
CCCOC(=O)OCO/C(=C(/C#N)c1ccc(C(C)(C)C)cc1)c1cc(C)nn1CC [Compound 549],≥ 95,≥ 90,≥ 90,≥ 90,≥ 90,≥ 90
CCC(OC(=O)C1CCCO1)O/C(=C(/C#N)c1ccc(C(C)(C)C)cc1)c1cc(C)nn1C (racemic) [Compound 70],≥ 95,≥ 90,≥ 90,,,
CCn1nc(C)c(C)c1/C(OC(C)OC(=O)OCCSC)=C(\C#N)c1ccc(C(C)(C)C)cc1 (stereo not drawn) [Compound 983],≥ 95,≥ 90,≥ 90,,,
CCOCCOC(=O)OCO/C(=C(/C#N)c1ccc(C(C)(C)C)cc1)c1c(Cl)c(C)nn1CC [Compound 757],≥ 95,≥ 90,≥ 90,,,
CCn1nc(C)c(C)c1/C(OCOC(=O)OCCC(C)C)=C(\C#N)c1ccc(C(C)(C)C)cc1 [Compound 938],≥ 95,≥ 90,≥ 90,,,
CCn1nc(C)c(C)c1/C(OC(C)OC(=O)OCC(F)F)=C(\C#N)c1ccc(C(C)(C)C)cc1 (stereo not drawn) [Compound 978],≥ 95,≥ 90,≥ 90,,,
CCn1nc(C)c(Cl)c1/C(OCOC(=O)OCCC(C)C)=C(\C#N)c1ccc(C(C)(C)C)cc1 [Compound 746],≥ 95,≥ 90,≥ 90,,,
CCSCC(=O)OC(CC)O/C(=C(/C#N)c1ccc(C(C)(C)C)cc1)c1cc(C)nn1C (racemic) [Compound 69],≥ 95,≥ 90,≥ 90,,,
CCCCOC(=O)OCO/C(=C(/C#N)c1ccc(C(C)(C)C)cc1)c1c(Cl)c(C)nn1CC [Compound 744],≥ 95,≥ 90,≥ 90,,,
Cc1cc(/C(OC(C)OC(=O)CCCCl)=C(\C#N)c2ccc(C(C)(C)C)cc2)n(C)n1 (racemic) [Compound 49],≥ 95,≥ 90,≥ 90,,,
Cc1nn(C)c(/C(OC(C)OC(=O)OC(C)C)=C(\C#N)c2ccc(C(C)(C)C)cc2)c1C (racemic) [Compound 870],≥ 95,≥ 90,≥ 90,,,
CCSC(=O)OC(C)O/C(=C(/C#N)c1ccc(C(C)(C)C)cc1)c1c(Cl)c(C)nn1C (racemic) [Compound 704],≥ 95,≥ 90,≥ 90,,,
CCn1nc(C)c(C)c1/C(OC(C)OC(C)=O)=C(/C#N)c1ccc(C(C)(C)C)cc1 (stereo not drawn) [Compound 1468],≥ 95,≥ 90,≥ 90,,,
CSCCOC(=O)OC(C)O/C(=C(/C#N)c1ccc(C(C)(C)C)cc1)c1c(Cl)c(C)nn1C (racemic) [Compound 695],≥ 95,≥ 90,≥ 90,,,
